Laboratory results published in PMC11217462.
These are yes or no findings as the source states them, for the method shown. In cells and extracts the contact can be indirect. Some entries that bind do so weakly or less than the wild type.

By UniProt entry, the sequences of proteins in these tests, tags left out.
UniProt Q9Y4B6: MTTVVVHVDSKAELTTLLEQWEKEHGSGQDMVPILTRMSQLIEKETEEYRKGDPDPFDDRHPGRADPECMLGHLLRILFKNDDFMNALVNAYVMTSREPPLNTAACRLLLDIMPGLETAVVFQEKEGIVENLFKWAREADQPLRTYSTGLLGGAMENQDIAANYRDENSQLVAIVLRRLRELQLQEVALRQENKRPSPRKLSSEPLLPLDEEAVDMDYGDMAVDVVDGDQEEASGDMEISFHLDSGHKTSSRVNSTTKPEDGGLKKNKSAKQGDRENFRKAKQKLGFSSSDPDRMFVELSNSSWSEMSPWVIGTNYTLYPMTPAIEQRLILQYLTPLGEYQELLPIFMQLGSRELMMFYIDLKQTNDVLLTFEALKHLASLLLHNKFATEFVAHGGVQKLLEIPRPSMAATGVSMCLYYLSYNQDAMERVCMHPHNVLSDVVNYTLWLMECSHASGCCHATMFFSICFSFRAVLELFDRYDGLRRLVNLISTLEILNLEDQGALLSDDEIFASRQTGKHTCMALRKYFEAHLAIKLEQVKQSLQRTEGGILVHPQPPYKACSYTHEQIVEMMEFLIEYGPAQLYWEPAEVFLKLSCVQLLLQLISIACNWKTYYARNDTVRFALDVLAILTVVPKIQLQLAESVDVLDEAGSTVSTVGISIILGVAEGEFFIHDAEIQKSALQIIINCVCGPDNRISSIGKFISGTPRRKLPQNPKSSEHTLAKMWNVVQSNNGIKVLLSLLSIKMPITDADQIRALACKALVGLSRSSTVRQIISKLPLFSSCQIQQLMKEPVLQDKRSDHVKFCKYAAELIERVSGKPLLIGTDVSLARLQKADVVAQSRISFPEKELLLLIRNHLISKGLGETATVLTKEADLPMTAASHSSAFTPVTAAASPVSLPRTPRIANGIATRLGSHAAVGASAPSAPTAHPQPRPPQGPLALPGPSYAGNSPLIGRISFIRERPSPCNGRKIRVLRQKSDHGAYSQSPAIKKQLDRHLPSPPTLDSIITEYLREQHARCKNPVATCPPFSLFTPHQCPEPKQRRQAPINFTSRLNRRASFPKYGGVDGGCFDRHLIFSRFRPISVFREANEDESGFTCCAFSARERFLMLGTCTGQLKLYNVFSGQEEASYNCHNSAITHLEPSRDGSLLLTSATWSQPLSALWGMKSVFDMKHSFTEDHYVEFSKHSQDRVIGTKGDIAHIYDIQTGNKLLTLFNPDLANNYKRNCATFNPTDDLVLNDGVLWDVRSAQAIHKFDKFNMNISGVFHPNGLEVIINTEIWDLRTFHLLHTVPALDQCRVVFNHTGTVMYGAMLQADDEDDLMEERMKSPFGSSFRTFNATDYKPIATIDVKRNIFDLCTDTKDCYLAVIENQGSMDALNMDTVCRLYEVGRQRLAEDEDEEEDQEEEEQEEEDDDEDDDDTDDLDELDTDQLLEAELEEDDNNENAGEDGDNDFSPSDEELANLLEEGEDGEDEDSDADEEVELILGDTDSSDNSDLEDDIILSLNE

What was measured:
[1] = target: 3xFLAG-tagged HIV-1 89.6 Vpr (HIV-1 (molecular clone 89.6)) (UniProt Q73369); test: co-IP; HEK 293T co-transfected with hPU.1 and 3xFLAG-89.6 Vpr; lysed in Pierce IP Lysis Buffer, anti-FLAG M2 magnetic beads, eluted with 3xFLAG peptide, immunoblot
[2] = target: 3xFLAG-tagged HIV-1 89.6 Vpr (HIV-1 (molecular clone 89.6)) (UniProt Q73369); test: co-IP; K562 transduced with lentiviruses for 3xFLAG-tagged Vpr, Vpr Q65R or Vpx (also K562 stably expressing shScramble or shDCAF1); endogenous PU.1 and DCAF1; anti-FLAG M2 magnetic beads, eluted with 3xFLAG peptide, immunoblot
[3] = target: 3xFLAG-tagged HIV-1 89.6 Vpr Q65R (HIV-1 (molecular clone 89.6)) (UniProt Q73369); test: as above
[4] = target: 3xFLAG-tagged HIV-1 89.6 Vpr (HIV-1 (molecular clone 89.6)) (UniProt Q73369); test: co-IP; primary human MDMs transduced with lentivirus for 3xFLAG-89.6 Vpr; endogenous PU.1 and DCAF1; anti-FLAG M2 magnetic beads, eluted with 3xFLAG peptide, immunoblot

For DCAF1 (from UniProt Q9Y4B6 1-1507), the binding [1] was “binds”, the binding [2] was “binds” and the binding [3] was “no binding”. The binding [4] was “binds”.
